Source: the supplement of paper PMC8975748
Where a name gives a salt, the structure may show the parent alone. ± gives the standard deviation of the averaged measurements. Some of the results follow. These are raw signals, not scaled to a control.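 One yeast strain harboring four plasmids, each bearing a fluorescent protein plus an amino-acid or uracil synthesis gene, founds the community. Random loss of plasmids produces mixed prototroph and auxotroph subpopulations. Cells were fixed, then counted with automated confocal fluorescence imaging, with DMSO-treated wells as vehicle reference.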

System: Saccharomyces cerevisiae BY4741 SeMeCo community
Assay: imaged cell count per well (cells); higher = more cells
Conditions: 10 µM; 24 h; SM minimal medium
Experimental: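 Same SeMeCo high-content imaging drug screen: Selleck FDA-approved drugs at 10 µM, 24 h in SM medium, 384-well plates, 3 replicates.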

CCCCCCCCCC(=O)N[C@H]1[C@H](Oc2c3cc4cc2Oc2ccc(cc2Cl)[C@@H](O[C@@H]2O[C@H](CO)[C@@H](O)[C@H](O)[C@H]2NC(C)=O)[C@@H]2NC(=O)[C@H](NC(=O)[C@@H]4NC(=O)[C@H]4NC(=O)[C@@H](Cc5ccc(c(Cl)c5)O3)NC(=O)[C@H](N)c3ccc(O)c(c3)Oc3cc(O)cc4c3)c3ccc(O)c(c3)-c3c(OC4O[C@H](CO)[C@@H](O)[C@H](O)[C@@H]4O)cc(O)cc3[C@@H](C(=O)O)NC2=O)O[C@H](CO)[C@@H](O)[C@@H]1O (stereo partly specified) [Teicoplanin]
imaged cell count per well: 32600 ± 5200

C[C@@H](O)[C@H]1C(=O)N2C(C(=O)O)=C(S[C@@H]3CN[C@H](C(=O)Nc4cccc(C(=O)O)c4)C3)[C@H](C)[C@H]12 [Ertapenem sodium]
imaged cell count per well: 33400 ± 7000

CC[C@@H]1/C=C(\C)C[C@H](C)C[C@H](OC)[C@H]2O[C@@](O)(C(=O)C(=O)N3CCCC[C@H]3C(=O)O[C@H](/C(C)=C/[C@@H]3CC[C@H](Cl)[C@H](OC)C3)[C@H](C)[C@@H](O)CC1=O)[C@H](C)C[C@@H]2OC [Pimecrolimus]
imaged cell count per well: 31200 ± 4000

CN1[C@@H](CC(=O)c2ccccc2)CCC[C@H]1C[C@H](O)c1ccccc1 [Lobeline hydrochloride]
imaged cell count per well: 25400 ± 7400

COc1cc([C@@H]2c3cc4c(cc3[C@@H](O[C@@H]3O[C@@H]5CO[C@@H](c6cccs6)O[C@H]5[C@H](O)[C@H]3O)[C@H]3COC(=O)[C@H]23)OCO4)cc(OC)c1O [Teniposide]
imaged cell count per well: 21600 ± 2300

CC(C)[N+](C)(CCOC(=O)C1c2ccccc2Oc2ccccc21)C(C)C [Propantheline bromide]
imaged cell count per well: 27400 ± 6600

O=C(CCCN1CC=C(n2c(=O)[nH]c3ccccc32)CC1)c1ccc(F)cc1 [Droperidol]
imaged cell count per well: 16900 ± 8200

CCCOc1ccc2[nH]c(NC(=O)OC)nc2c1 [Oxibendazole]
imaged cell count per well: 25900 ± 2600

CO/N=C(\C(=O)N[C@@H]1C(=O)N2C(C(=O)O)=C(CSC(=O)c3ccco3)CS[C@H]12)c1csc(N)n1 [Ceftiofur]
imaged cell count per well: 21200 ± 8100

CCC(C)(C)c1ccc(CC(C)CN2C[C@@H](C)O[C@@H](C)C2)cc1 (stereo partly specified) [Amorolfine HCl]
imaged cell count per well: 4330 ± 610

CN[C@@H]1[C@H](O)[C@H](NC)[C@H]2O[C@@]3(O)C(=O)C[C@@H](C)O[C@H]3O[C@@H]2[C@H]1O [Spectinomycin 2HCl]
imaged cell count per well: 21700 ± 3000

N[C@@H]1CONC1=O [D-Cycloserine]
imaged cell count per well: 28500 ± 3400

NC(=NCCCCCCN=C(N)N=C(N)Nc1ccc(Cl)cc1)N=C(N)Nc1ccc(Cl)cc1 [Chlorhexidine?2HCl]
imaged cell count per well: 32000 ± 2400

CC(C)(C)C(=O)C(Oc1ccc(Cl)cc1)n1ccnc1 (stereo unspecified) [Climbazole]
imaged cell count per well: 4990 ± 2600

CCn1cc(C(=O)O)c(=O)c2cc(F)c(N3CCNC(C)C3)c(F)c21 (stereo unspecified) [Lomefloxacin HCl]
imaged cell count per well: 25240 ± 160

Nc1ccc(C(=O)O)c(O)c1 [4-Aminosalicylic acid]
imaged cell count per well: 31900 ± 2500

COc1ccc2[nH]c([S+]([O-])Cc3ncc(C)c(OC)c3C)nc2c1 (stereo unspecified) [Omeprazole Sodium]
imaged cell count per well: 29500 ± 3300

Clc1ccc(COC(Cn2ccnc2)c2ccc(Cl)cc2Cl)cc1 (stereo unspecified) [Econazole]
imaged cell count per well: 3530 ± 430

c1cnc(N2CCN(Cc3ccc4c(c3)OCO4)CC2)nc1 [Piribedil]
imaged cell count per well: 16600 ± 8600

N#C/C(=C1/SC[C@@H](c2ccc(Cl)cc2Cl)S1)n1ccnc1 [Luliconazole]
imaged cell count per well: 3090 ± 800

CN(C)CC(c1ccc(O)cc1)C1(O)CCCCC1 (stereo unspecified) [Desvenlafaxine]
imaged cell count per well: 29200 ± 7800

Cc1nccn1CC1CCc2c(c3ccccc3n2C)C1=O (stereo unspecified) [Ondansetron Hydrochloride Dihydrate]
imaged cell count per well: 27600 ± 8800

COc1ncnc(NS(=O)(=O)c2ccc(N)cc2)c1OC [Sulfadoxine]
imaged cell count per well: 20700 ± 2400

CC(=O)NO [Acetohydroxamic acid]
imaged cell count per well: 24200 ± 5300

CN(C)CCc1c[nH]c2ccc(CS(=O)(=O)N3CCCC3)cc12 [Almotriptan Malate]
imaged cell count per well: 22700 ± 1600

CCc1c2c(nc3ccc(OC(=O)N4CCC(N5CCCCC5)CC4)cc13)-c1cc3c(c(=O)n1C2)COC(=O)[C@]3(O)CC [Irinotecan HCl Trihydrate]
imaged cell count per well: 21100 ± 8000

CC1(C)S[C@@H]2[C@H](NC(=O)C(C(=O)O)c3ccccc3)C(=O)N2[C@H]1C(=O)O (stereo partly specified) [Carbenicillin disodium]
imaged cell count per well: 24500 ± 480

Fc1ccc(C(c2ccc(F)cc2)N2CCN(C/C=C/c3ccccc3)CC2)cc1 [Flunarizine 2HCl]
imaged cell count per well: 18700 ± 2300

CCC(=O)NS(=O)(=O)c1ccc(-c2c(-c3ccccc3)noc2C)cc1 [Parecoxib]
imaged cell count per well: 23000 ± 2900

C#C[C@]1(O)CC[C@H]2[C@@H]3CCc4cc(O)ccc4[C@H]3CC[C@@]21C [Ethinyl Estradiol]
imaged cell count per well: 23000 ± 2500

Cc1ncc([N+](=O)[O-])n1CCOC(=O)c1ccccc1 [Metronidazole Benzoate]
imaged cell count per well: 26200 ± 3000

NC12CC3CC(CC(C3)C1)C2 [Amantadine HCl]
imaged cell count per well: 21400 ± 2200

Clc1ccc2c(N3CCN(CCCN4CCN(c5ccnc6cc(Cl)ccc56)CC4)CC3)ccnc2c1 [Piperaquine phosphate]
imaged cell count per well: 17700 ± 2000

C[C@@H](O)[C@H]1C(=O)N2C(C(=O)O)=C(SCCNC=N)C[C@H]12 [Imipenem]
imaged cell count per well: 18000 ± 3100

CC[C@H]1OC(=O)[C@H](C)[C@@H](O[C@H]2C[C@@](C)(OC)[C@@H](O)[C@H](C)O2)[C@H](C)[C@@H](O[C@@H]2O[C@H](C)C[C@H](N(C)C)[C@H]2O)[C@](C)(O)C[C@@H](C)C(=O)[C@H](C)[C@@H](O)[C@]1(C)O [Erythromycin thiocyanate]
imaged cell count per well: 30300 ± 2300

Cc1cc(NS(=O)(=O)c2ccc(N)cc2)no1 [Sulfamethoxazole sodium]
imaged cell count per well: 25400 ± 10000

CN(C)[C@@H](CCOc1cccc2ccccc12)c1ccccc1 [Dapoxetine HCl]
imaged cell count per well: 25300 ± 4200

CN1CCN(CC(=O)N2c3ccccc3C(=O)Nc3cccnc32)CC1 [Pirenzepine dihydrochloride]
imaged cell count per well: 28300 ± 1700

CN(C)CCC=C1c2ccccc2CCc2ccccc21 [Amitriptyline HCl]
imaged cell count per well: 25600 ± 4800

COC(=O)C1=C(C)NC(C)=C(C(=O)OCCN2CCN(C(c3ccccc3)c3ccccc3)CC2)C1c1cccc([N+](=O)[O-])c1 (stereo unspecified) [Manidipine 2HCl]
imaged cell count per well: 27300 ± 6300

O=C1c2cccc3c2[C@H](CCC3)CN1[C@@H]1CN2CCC1CC2 [Palonosetron HCl]
imaged cell count per well: 24400 ± 4500

C[N+](C)(C)CCO.[Cl-] [Choline Chloride]
imaged cell count per well: 32000 ± 6600

CCOC(=O)c1ccc(N)cc1 [Benzocaine]
imaged cell count per well: 25400 ± 6300

COCC(=O)Nc1cc(Sc2ccccc2)ccc1N=C(NC(=O)OC)NC(=O)OC [Febantel]
imaged cell count per well: 30400 ± 2500

CC/C=C(\C(=O)N[C@@H]1C(=O)N2C(C(=O)OCOC(=O)C(C)(C)C)=C(COC(N)=O)CS[C@H]12)c1csc(N)n1 [Cefcapene Pivoxil Hydrochloride]
imaged cell count per well: 23700 ± 12000

COc1cc(O)c(C(=O)Nc2nc(C(=O)NCCN(C(C)C)C(C)C)cs2)cc1OC [Acotiamide]
imaged cell count per well: 28900 ± 3600
